The results in this text go back to patent US20030143656A1.

By UniProt entry, the sequences of proteins in these tests, tags left out. Where a name states a change or a piece, a line headed by the entry shows the natural chain unless it says otherwise. Chains listed by the source or under a name are the forms on record and can include a tag or linker. Residues count along the entry.
UniProt P23443: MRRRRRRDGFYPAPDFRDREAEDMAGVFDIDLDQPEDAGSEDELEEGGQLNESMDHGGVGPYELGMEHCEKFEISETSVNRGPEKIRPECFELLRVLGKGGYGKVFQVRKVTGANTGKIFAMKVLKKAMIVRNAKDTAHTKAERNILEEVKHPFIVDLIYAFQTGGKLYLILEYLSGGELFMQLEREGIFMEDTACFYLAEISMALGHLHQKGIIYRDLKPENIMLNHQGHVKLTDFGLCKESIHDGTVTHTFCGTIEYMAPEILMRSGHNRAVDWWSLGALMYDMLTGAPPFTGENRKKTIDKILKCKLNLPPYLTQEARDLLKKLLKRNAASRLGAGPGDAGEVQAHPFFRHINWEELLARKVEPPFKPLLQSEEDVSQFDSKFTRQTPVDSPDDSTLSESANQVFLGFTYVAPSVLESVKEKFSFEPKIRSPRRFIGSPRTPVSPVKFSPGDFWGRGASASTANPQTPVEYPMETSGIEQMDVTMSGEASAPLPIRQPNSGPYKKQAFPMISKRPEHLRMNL
full length S6K1 mutant in which Thr412 and all five phosphorylated C-terminal residues were mutated to acidic residues (P23443, form named): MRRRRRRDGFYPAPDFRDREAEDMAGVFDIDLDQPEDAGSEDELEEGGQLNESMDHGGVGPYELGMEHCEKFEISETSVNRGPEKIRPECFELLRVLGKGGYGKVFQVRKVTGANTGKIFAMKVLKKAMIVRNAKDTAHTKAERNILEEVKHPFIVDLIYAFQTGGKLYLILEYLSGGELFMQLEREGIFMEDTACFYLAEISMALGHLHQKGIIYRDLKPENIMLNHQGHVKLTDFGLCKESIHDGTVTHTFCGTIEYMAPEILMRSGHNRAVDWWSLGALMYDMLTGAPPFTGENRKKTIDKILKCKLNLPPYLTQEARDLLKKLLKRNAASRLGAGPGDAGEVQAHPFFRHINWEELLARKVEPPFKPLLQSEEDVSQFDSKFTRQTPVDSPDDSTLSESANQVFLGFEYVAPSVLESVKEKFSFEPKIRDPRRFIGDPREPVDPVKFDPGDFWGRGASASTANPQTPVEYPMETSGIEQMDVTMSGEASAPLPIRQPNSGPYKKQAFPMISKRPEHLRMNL

The target of this assay is T1, GST-PDK1 (wild type) (human) (UniProt O15530).
T1 sequence (looked up): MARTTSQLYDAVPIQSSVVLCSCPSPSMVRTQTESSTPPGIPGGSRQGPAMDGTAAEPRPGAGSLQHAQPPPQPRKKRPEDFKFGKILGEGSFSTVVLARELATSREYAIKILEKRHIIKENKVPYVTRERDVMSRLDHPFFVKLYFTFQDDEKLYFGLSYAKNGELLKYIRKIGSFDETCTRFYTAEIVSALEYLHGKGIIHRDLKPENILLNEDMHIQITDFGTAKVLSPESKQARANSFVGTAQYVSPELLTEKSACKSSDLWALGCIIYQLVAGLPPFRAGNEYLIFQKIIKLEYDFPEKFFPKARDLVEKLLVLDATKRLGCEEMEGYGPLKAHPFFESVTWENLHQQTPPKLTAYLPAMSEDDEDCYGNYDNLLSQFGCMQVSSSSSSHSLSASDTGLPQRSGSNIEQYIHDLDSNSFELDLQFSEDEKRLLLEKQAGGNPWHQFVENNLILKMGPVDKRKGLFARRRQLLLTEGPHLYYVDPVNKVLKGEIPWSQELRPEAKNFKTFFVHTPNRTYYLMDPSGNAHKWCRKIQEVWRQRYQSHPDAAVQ
Description: binding experiment not described (presumably pull-down).

No constants are given. Whether binding was seen depends on the method and setting. In cells and extracts the contact can be indirect. Some results given as binding are weak or reduced against the parent protein; the word gives no strength. Sequences can lack the tags named with a protein.

As to “full length S6K1 mutant in which Thr412 and all five phosphorylated C-terminal residues were mutated to acidic residues (from UniProt P23443 1-525) (enzyme)”, the binding entry is listed as “binds”.
